Measured values: patent US20120003630

By UniProt entry, the sequences of proteins in these tests, tags left out. Where a name states a change or a piece, a line headed by the entry shows the natural chain unless it says otherwise.
UniProt P00573: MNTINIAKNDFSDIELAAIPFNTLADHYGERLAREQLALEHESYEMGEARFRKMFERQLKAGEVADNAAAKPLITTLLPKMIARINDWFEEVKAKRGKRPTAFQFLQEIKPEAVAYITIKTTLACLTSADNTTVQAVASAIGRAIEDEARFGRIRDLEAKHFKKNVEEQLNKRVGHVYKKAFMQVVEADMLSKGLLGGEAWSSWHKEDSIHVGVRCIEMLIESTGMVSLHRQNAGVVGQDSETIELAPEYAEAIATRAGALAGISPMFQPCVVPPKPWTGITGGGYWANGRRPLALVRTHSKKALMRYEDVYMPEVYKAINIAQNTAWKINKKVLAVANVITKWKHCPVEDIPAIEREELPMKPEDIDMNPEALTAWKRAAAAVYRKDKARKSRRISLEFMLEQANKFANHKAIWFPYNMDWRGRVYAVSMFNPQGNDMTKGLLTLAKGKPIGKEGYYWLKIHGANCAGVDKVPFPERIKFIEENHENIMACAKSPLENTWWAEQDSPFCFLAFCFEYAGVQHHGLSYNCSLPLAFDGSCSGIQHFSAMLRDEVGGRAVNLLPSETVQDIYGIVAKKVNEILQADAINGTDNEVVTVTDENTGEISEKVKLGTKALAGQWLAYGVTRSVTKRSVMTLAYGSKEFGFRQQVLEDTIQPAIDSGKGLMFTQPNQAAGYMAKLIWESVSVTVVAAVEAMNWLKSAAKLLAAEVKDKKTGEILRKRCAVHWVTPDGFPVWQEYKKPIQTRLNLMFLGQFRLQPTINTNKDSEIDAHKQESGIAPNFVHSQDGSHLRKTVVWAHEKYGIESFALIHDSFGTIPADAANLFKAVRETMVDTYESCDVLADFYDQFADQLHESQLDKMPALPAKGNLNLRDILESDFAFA
UniProt P07659: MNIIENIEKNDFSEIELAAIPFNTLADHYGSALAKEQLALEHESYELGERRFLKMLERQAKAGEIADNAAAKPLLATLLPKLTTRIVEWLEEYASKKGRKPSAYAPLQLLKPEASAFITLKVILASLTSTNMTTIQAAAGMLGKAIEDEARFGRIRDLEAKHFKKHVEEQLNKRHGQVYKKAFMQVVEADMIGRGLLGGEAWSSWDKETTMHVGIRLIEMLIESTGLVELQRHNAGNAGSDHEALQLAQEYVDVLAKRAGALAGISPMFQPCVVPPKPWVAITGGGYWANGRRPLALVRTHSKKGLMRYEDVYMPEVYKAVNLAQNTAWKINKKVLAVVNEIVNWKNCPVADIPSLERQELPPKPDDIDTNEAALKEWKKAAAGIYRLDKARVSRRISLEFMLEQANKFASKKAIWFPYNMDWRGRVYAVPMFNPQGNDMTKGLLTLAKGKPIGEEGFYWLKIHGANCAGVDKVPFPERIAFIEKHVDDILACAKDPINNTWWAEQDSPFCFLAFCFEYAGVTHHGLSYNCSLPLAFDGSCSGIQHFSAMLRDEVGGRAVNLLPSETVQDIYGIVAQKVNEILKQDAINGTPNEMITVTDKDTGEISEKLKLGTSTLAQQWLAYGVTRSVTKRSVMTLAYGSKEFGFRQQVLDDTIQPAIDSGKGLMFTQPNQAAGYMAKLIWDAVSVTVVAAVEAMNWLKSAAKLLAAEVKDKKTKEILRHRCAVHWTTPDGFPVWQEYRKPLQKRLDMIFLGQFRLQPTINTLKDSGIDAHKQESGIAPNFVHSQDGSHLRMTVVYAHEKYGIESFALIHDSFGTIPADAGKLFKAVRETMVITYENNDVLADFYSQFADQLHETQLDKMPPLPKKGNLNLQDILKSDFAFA

Experiments:
[1] = molecular target: T7 RNA polymerase (Bacteriophage T7) (UniProt P00573); experiment: activity in cells; conditions: transcription of GFP or T3 RNAP in E. coli RTC counters, 37 C; protein in cells; protein details: gene from NCBI NC_001604.1; only the site is given
[2] = molecular target: T3 RNA polymerase (Bacteriophage T3) (UniProt P07659); experiment: activity in cells; conditions: transcription of GFP in E. coli RTC 3-Counter, 37 C; protein in cells; protein details: gene from NCBI NC_003298.1; only the site is given

Sequence | functional effect [1] | functional effect [2]
TAATACGACTCACTATAGGGAGA (double strand) [T7 promoter] | active | 
ATTAACCCTCACTAAAGGGAGA (double strand) [T3 promoter 14.3m] |  | active
